# Test results published in publication PMC4764579, “Structural insights into the mechanism of activation of the TRPV1 channel by a membrane-bound tarantula toxin” (eLife, 2016).
# By UniProt entry, the sequences of proteins in these tests, tags left out. Where a name states a change or a piece, a line headed by the entry shows the natural chain unless it says otherwise. Chains listed by the source or under a name are the forms on record and can include a tag or linker. Residues count along the entry.
# TRPV1 construct used for cryo-EM (pore turret residues 604-626 deleted) (O35433, form named): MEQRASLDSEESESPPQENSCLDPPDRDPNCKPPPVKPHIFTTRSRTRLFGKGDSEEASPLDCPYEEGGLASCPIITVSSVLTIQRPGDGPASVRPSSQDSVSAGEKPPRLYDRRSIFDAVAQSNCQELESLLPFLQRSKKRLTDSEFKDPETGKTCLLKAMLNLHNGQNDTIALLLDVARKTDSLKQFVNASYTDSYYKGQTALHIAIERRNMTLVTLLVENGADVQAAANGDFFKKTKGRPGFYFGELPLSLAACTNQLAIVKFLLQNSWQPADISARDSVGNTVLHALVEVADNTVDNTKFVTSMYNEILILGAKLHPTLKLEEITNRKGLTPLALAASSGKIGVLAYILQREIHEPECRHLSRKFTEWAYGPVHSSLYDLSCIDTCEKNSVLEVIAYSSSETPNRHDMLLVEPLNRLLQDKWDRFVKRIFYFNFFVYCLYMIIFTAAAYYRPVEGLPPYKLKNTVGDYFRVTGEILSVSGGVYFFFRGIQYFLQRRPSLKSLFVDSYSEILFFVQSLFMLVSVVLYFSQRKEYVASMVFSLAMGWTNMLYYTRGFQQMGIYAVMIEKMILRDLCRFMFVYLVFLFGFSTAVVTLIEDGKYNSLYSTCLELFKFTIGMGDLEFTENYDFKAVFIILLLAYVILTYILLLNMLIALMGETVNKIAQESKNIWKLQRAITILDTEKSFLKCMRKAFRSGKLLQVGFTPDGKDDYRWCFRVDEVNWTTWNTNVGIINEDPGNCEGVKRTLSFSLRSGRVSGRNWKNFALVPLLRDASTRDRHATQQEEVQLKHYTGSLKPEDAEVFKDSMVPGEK
# Results are given in words; binding and its absence hold for the method and conditions named. Some entries that bind do so weakly or less than the wild type.
# Target: TRPV1 construct used for cryo-EM (pore turret residues 604-626 deleted) (rat) (UniProt O35433)
# Test: cryo-EM structure; […] four knot densities, two DkTx per channel; apo channel refined into the fourfold-symmetric map EMD-5778; both purified
substance,measurement,value
TRPV1 construct used for cryo-EM (pore turret residues 604-626 deleted) (from UniProt O35433 1-838),binding,binds
